Reference: publication PMC8458969
No constants are given. Whether binding was seen depends on the method and setting. Binding calls can cover weak binding; strength is not graded here.

target: GmPGL2 (Glycine max pale green leaf 2), Gal4 DNA-binding domain fusion (soybean (Glycine max)) (UniProt K7KQ04); assay: two-hybrid; Gal4-based, Matchmaker Gold system; GmPGL2 or GmPGL2m in pGBKT7-BD, MORF/ORRM in pGADT7-AD; strain Y2H Gold; growth on SD/-Ade/-His/-Leu/-Trp (QDO), 48 h at 28°C

| binding | Substance |
| --- | --- |
| binds | GmMORF8, Gal4 activation domain fusion (from UniProt I1M324) |
| binds | GmMORF9, Gal4 activation domain fusion (from UniProt I1ME71) |
| binds | GmORRM6, Gal4 activation domain fusion (from UniProt C6SVN2) |
